# From publication PMC12670160, “A drug-repurposing screen of FDA- and EMA-approved drugs identifies two NF-κB inhibitors active against eumycetoma” (Journal of Antimicrobial Chemotherapy, 2025)
# Structures can show the parent of a compound that is named as a salt. Hit rate of the full screen: of about 5,300 compounds, about 130 (2.5%) showed an effect of 50% or more. Some of the results follow.
# Tested on: M. mycetomatis strain mm55
# Details: primary screen, metabolic activity vs growth control; 96 h, 2 µM; inhibitor
row,Compound,% viability [%]
1,"CN(CC(=O)O)C(=N)N [ONC0003801, creatine]",63.3
2,"O=C(O)Cc1ccc(CCNS(=O)(=O)c2ccc(Cl)cc2)cc1 [ONC0002194, daltroban]",74.66
3,"C[C@]12CC[C@@H]3c4ccc(OC(=O)c5ccccc5)cc4CC[C@H]3[C@@H]1CC[C@@H]2O [ONC0000655, estradiol benzoate]",107.6
4,"Cc1ccc(F)c(NC(=O)Nc2ccc(-c3cccc4[nH]nc(N)c34)cc2)c1 [ONC0004684, linifanib abt869]",93.84
5,"O=c1onc2cnc3ccccc3n12 [ONC0002647, odq]",62.96
6,"O=C(CCCN1CCN(c2ccccn2)CC1)c1ccc(F)cc1 [ONC0003996, azaperone]",81.42
7,"O=C(Nc1ccncc1)c1cc([N+](=O)[O-])ccc1Cl [ONC0003673, t0070907]",54.04
8,"C#C[C@]1(O)CC[C@H]2[C@@H]3CCC4=CCCC[C@@H]4[C@H]3CC[C@@]21C [ONC0005352, lynestrenol]",86.96
9,"C[C@@H](O)[C@@H]1NC(=O)[C@H](CCCCN)NC(=O)[C@@H](Cc2c[nH]c3ccccc23)NC(=O)[C@H](Cc2ccccc2)NC(=O)[C@@H](NC(=O)[C@H](N)Cc2ccccc2)CSSC[C@@H](C(=O)N[C@H](CO)[C@@H](C)O)NC1=O [ONC0002167, octreotide acetate]",72.01
10,"N[C@@H](Cc1ccc(B(O)O)cc1)C(=O)O [ONC0005503, boronophenylalanine]",97.13
11,"O=S(=O)(N[C@H]1CC[C@@](c2cc(F)ccc2F)(S(=O)(=O)c2ccc(Cl)cc2)CC1)C(F)(F)F [ONC0001737, mrk560]",116.9
12,"C[C@]12CCC3C(CC[C@]4(O)C[C@@H](O)CC[C@]34C=O)[C@@]1(O)CCC2C1=CC(=O)OC1 (stereo partly drawn) [ONC0003512, strophantidin]",60.95
13,"CNCCCC1(c2ccccc2)OC(C)(C)c2ccccc21 (stereo not drawn) [ONC0000880, talopram]",94.2
14,"C[C@H](CCC(=O)O)[C@H]1CC[C@H]2[C@@H]3[C@@H](O)C[C@@H]4C[C@H](O)CC[C@]4(C)[C@H]3CC[C@]12C [ONC0003173, ursodiol]",114.2
15,"NC1CCC(N[C@@H]2C[C@H]2c2ccccc2)CC1 (stereo partly drawn) [ONC0004699, ory1001 rg6016 2hcl]",133.1
16,"C[C@@H](CN1CCC(Cc2ccccc2)CC1)[C@@H](O)c1ccc(O)cc1 [ONC0001553, ro256981]",116.8
17,"N#Cc1cc2nc(O)c(O)nc2cc1[N+](=O)[O-] [ONC0000818, cnqx]",71.7
18,COC(=O)C1=C(C#N)NC(C)=C(C(=O)OC(C)C)C1c1cccc([N+](=O)[O-])c1 (stereo not drawn) [nilvadipine arc029],85.22
19,"COC(=O)[C@H](NC(=O)c1cc(-c2ccccc2)nc2ccccc12)c1ccccc1 [ONC0001501, sb218795]",80.75
20,"COc1oc(=O)c2cc(N)ccc2c1Cl [ONC0001285, jlk6]",102.3
21,"C#C[C@]1(O)CCC2C3CCC4=C(CCC(=O)C4)C3CC[C@@]21C (stereo partly drawn) [ONC0000393, norethynodrel]",78.62

row,Compound,% viability [%]
1,"N[C@@H](CS(=O)O)C(=O)O [ONC0001597, lcysteinesulfinicacid]",62.57
2,"COCCCN1CCC(NC(=O)c2cc(Cl)c(N)c3c2OCC3)CC1 [ONC0004542, prucalopride]",76.49
3,"Nc1nc(-c2ccc(Cl)c(Cl)c2)c(-c2ccncc2)s1 [ONC0001363, cgh2466]",81.4
4,"CCN1CCN(Cc2ccc(C(=O)Nc3ccc(C)c(Oc4ccc5c(c4)CC(=O)N5)c3)cc2C(F)(F)F)CC1 [ONC0000098, ddr1in1]",107.7
5,"COC[C@H](C)Oc1cc(O[C@@H](C)Cc2ccccc2)cc(C(=O)Nc2ccc(C(=O)O)cn2)c1 [ONC0001360, gka50]",117.7
6,"N[C@@H](Cc1cc(I)c(Oc2ccc(O)c(I)c2)c(I)c1)C(=O)O [ONC0004152, liothyronine l isomer sodium]",70.68
7,"CCC(=O)NC1Cc2ccccc2C(c2ccccc2)C1 (stereo not drawn) [ONC0001473, 4ppdot]",63.49
8,"O=C(Oc1cc(S(=O)(=O)c2ccccc2)ccc1[N+](=O)[O-])c1ccc(Cl)cc1 [ONC0005146, btb06584]",71.25
9,"CN(C)C(=O)[C@H](O)[C@H](Cc1ccccc1)NC(=O)c1cc2cc(Cl)ccc2[nH]1 [ONC0005223, cp91149]",141.1
10,"CC1(C(=O)O)NCCc2cc(O)c(O)cc21 (stereo not drawn) [ONC0004346, salsolinol1carboxylicacid]",112.4
11,"Cl/C(=C\n1cncn1)c1ccc(Cl)cc1Cl [ONC0000796, loreclezole]",78.82
12,"Cl.Cn1cc(C(=O)[C@@H]2CCc3nc[nH]c3C2)c2ccccc21 [ONC0005309, ramosetron hydrochloride]",116
13,"Cc1cc(CN2CCN(c3c(Br)cnc4nc(-c5ccc(N6CCN(C)CC6)cc5)[nH]c34)CC2)no1 [ONC0000867, cct137690]",70.67
14,"Cc1ccc(=O)n(-c2ccccc2)c1 [ONC0000221, pirfenidone]",50.61
15,"CN1CCC(=C2c3ccccc3Sc3ccccc32)CC1 [ONC0000674, pimethixene maleate]",120.3
16,"Nc1c2ccccc2nc2ccccc12 [ONC0003246, aminacrine]",117.4
17,"CN(C)C(=O)C(=O)c1cn(C)c2cc(Cl)c(C(=O)N3CCC(Cc4ccc(F)cc4)CC3)cc12 [ONC0001387, sx011]",68.08
18,"O=C(NCc1ccccn1)Nc1nnc(-c2ccco2)o1 [ONC0003547, nk252]",86.97
19,"COC(=O)CCC(=O)CN [ONC0003503, methyl aminolevulinatehcl]",72.09
20,"CCCNC(=O)Nc1ccc(Oc2ncnc3cc(OC)c(OC)cc23)cc1Cl [ONC0004921, krn 633]",115.3
21,"CC1(C)CCC(C)(C)c2c1cc(C(=O)Nc1cc(F)c(C(=O)O)c(F)c1)c(O)c2Cl [ONC0001249, agn 195183]",77.74

row,Compound,% viability [%]
1,"CCCCN(CCCC)CC(O)c1cc(Cl)cc2c1-c1ccc(Cl)cc1/C2=C/c1ccc(Cl)cc1 (stereo not drawn) [ONC0000941, lumefantrine]",75.53
2,"Cc1cn(-c2cc(NC(=O)c3ccc(C)c(Nc4nccc(-c5cccnc5)n4)c3)cc(C(F)(F)F)c2)cn1 [ONC0004624, nilotinib amn107]",69.14
3,"CC[C@H](CC[C@@H](C)[C@H]1CC[C@H]2[C@@H]3CC=C4C[C@@H](O)CC[C@]4(C)[C@H]3CC[C@]12C)C(C)C [ONC0004996, sitosterol]",86.55
4,"Cc1cc(O)cc(C)c1Cl [ONC0000774, chloroxylenol]",60.66
5,"CC(=O)N(c1onc(C)c1C)S(=O)(=O)c1ccc(N)cc1 [ONC0003957, sulfisoxazole acetyl]",60.72
6,"O=C(NCCCCN1CCN(c2cccc(Cl)c2Cl)CC1)c1ccc2c(c1)Cc1ccccc1-2 [ONC0001342, ngb2904]",121.8
7,"Oc1cccc(O)c1 [ONC0003368, resorcinol]",79.24
8,"CC(Cc1ccc(O)cc1)NCC(O)c1cc(O)cc(O)c1 (stereo not drawn) [ONC0003251, fenoterol hydrobromide]",75.98
9,"CC(N)CCCC(C)(C)O (stereo not drawn) [ONC0002831, heptaminol hydrochloride]",128.5
10,"CN1CCCN=C1/C=C/c1cccc(O)c1 [ONC0005548, oxantel pamoate]",79.63
11,"N#CCC(=O)NN [ONC0002355, cyacetacide]",110.9
12,CC(C)(C)c1ccc(S(=O)(=O)/C=C/C#N)cc1 [bay117085],1.843
13,"COc1nccnc1NS(=O)(=O)c1ccc(N)cc1 [ONC0003783, sulfametopyrazine]",85.99
14,"COc1ccc2cc(C(C)C(=O)Oc3ccc(C(N)=S)cc3)ccc2c1 (stereo not drawn) [ONC0000870, atb346]",83.85
15,"CCN1C[C@H](C)n2c(c(O)c3c(=O)n(Cc4ccc(F)c(Cl)c4)nc(C(=O)NC)c32)C1=O [ONC0005069, mk2048]",69.52
16,"O=C(O)c1ccccc1S [ONC0003836, omercaptobenzoicacid]",67.33
17,"Clc1ccc2c(N3CCN(CCCN4CCN(c5ccnc6cc(Cl)ccc56)CC4)CC3)ccnc2c1 [ONC0003887, 13bis47chloro4quinolinyl1piperazinylpropane tetraphosphate tetrahydrate]",72.49
18,"C1CCc2nnnn2CC1 [ONC0005284, pentylenetetrazol]",72.53
19,"CC(=O)c1c(C)c2cnc(Nc3ccc(N4CCNCC4)cn3)nc2n(C2CCCC2)c1=O [ONC0004470, pd 0332991 palbociclib hcl]",138.7
20,"CN(C)c1ccc2c(c1)Sc1cc(N(C)C)ccc1N2.CS(=O)(=O)O [ONC0001830, leucomethylene blue mesylate]",74.38
21,"C[C@H]1CO[C@@H]2Cn3cc(C(=O)NCc4ccc(F)cc4F)c(=O)c(O)c3C(=O)N12 [ONC0004326, cabotegravir gsk744 gsk1265744]",131.5

# Reformatted with tabs: part of the list above
row	Compound	% viability [%]
17	N#Cc1cc2nc(O)c(O)nc2cc1[N+](=O)[O-] [ONC0000818, cnqx]	71.7
18	COC(=O)C1=C(C#N)NC(C)=C(C(=O)OC(C)C)C1c1cccc([N+](=O)[O-])c1 (stereo not drawn) [nilvadipine arc029]	85.22
19	COC(=O)[C@H](NC(=O)c1cc(-c2ccccc2)nc2ccccc12)c1ccccc1 [ONC0001501, sb218795]	80.75
20	COc1oc(=O)c2cc(N)ccc2c1Cl [ONC0001285, jlk6]	102.3
